Data taken from publication PMC9157258.
Results are given in words; binding and its absence hold for the method and conditions named. Binding seen in cells or lysates may run through a third protein. Some binding calls cover weakened binding; strength is not graded here.

Key:
[1] = target: T1, Malignant T-cell-amplified sequence 1 (mouse (endogenous in fetal and adult HSPCs)) (UniProt Q9DB27); assay: proximity ligation; Duolink in situ PLA with anti-DENR and anti-MCTS1 antibodies in methanol/acetone-fixed adult bone marrow HSPCs
T1 sequence: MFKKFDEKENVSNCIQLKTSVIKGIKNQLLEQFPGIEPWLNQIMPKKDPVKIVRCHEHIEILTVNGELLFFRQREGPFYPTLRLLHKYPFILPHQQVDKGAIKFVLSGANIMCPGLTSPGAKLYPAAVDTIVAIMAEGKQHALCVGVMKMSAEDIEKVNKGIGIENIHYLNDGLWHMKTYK

[2] = target: T1, Malignant T-cell-amplified sequence 1 (mouse (endogenous in fetal and adult HSPCs)); assay: proximity ligation; Duolink in situ PLA with anti-DENR and anti-MCTS1 antibodies in methanol/acetone-fixed fetal liver HSPCs

B1: Density regulated protein (protein, UniProt Q9CQJ6 1-198)
chain: MATDISESSGADCKGDTKNSAKLDADYPLRVLYCGVCSLPTEYCEYMPDVAKCRQWLEKNFPNEFAKLTVENSPKQETGITEGQGPVGEEEEKKKQKRGGRGQIKQKKKTVPQKVTIAKIPRAKKKYVTRVCGLATFEIDLKEAQRFFAQKFSCGASVTGEDEIIIQGDFTDDIIDVIQEKWPEVDDDSIEDLGEVKK
With B1 the binding [1] was “no binding (condition: in adult bone marrow HSPCs)” and the binding [2] was “binds”.
